In patent US20190040142A1:
Results are given in words; binding and its absence hold for the method and conditions named. Binding calls can cover weak binding; strength is not graded here.

Columns and labels:
Assay in all cases: FACS, HEK293T cells expressing human/rat KLB chimeric proteins; summary table of + and - by epitope bin
[1] = target: human/rat KLB chimera, third bar of FIG. 11B
[2] = target: human/rat KLB chimera, fourth bar of FIG. 11B
[3] = target: human/rat KLB chimera, fifth bar of FIG. 11B
[4] = target: human/rat KLB chimera, sixth bar of FIG. 11B

| Binder | binding [1] | binding [2] | binding [3] | binding [4] |
| --- | --- | --- | --- | --- |
| anti-KLB monoclonal antibody 12B8 (antibody, V domains shown) VH: QIQLVQSGPELKKPGETAKISCKASGYAFSNYGMNWVKQAPGKDLKWMGWIDTDTGEATYTDDFKGRFVFSLETSASTAYLQINNLKNEDMATYFCAREEYGLFGFPYWGHGTLVTVSA VL: DIQMTQSSSSFSVSLGDRVTITCKASEDIYNRLAWYQQKPGSAPRLLISAATSLETGVPSRFSGSGSGKDYTLSITSLQTEDVATYYCQQYWSNPLTFGAGTKLELK | binds | no binding (tested: not given) | binds | no binding (tested: not given) |
| anti-KLB monoclonal antibody 2C12 (antibody, human IgG1, V domains shown) VH: EVQLQQSGPGLVKPSQSLSLTCSVTGYSITSGYYWTWIRQFPGNKLEWMGYIKYDGGNYYNPSLRNRISITRDTSKNHFFLKFYSVTAEDTATYFCARGDYYASPYGAMDSWGQGTSVTVSS VL: DIVMTQSPSSLSASLGDTITITCHASQDIDVWLSWYQQKPGNVPQLLISKSSILHTGVPSRFSGGGSGTGFTLTISSLQPEDIATYYCQQGLSYPFTFGSGTKLKIK | binds | binds | no binding (tested: not given) | no binding (tested: not given) |
| anti-KLB monoclonal antibody 23B3 (antibody, V domains shown) VH: EVQLQESGPGLVKPSQSLSLTCSVTGYSITSGYYWNWIRQFPGNKLEWMGYIRYDGNSNYNPFLKNRVSITRDTSKNQFFLKLNSVTTEDTATYYCTRKGAYYSSFDALDYWGQGTSVTVSS VL: DIVMTQSPSSMYASLGERVTISCKASQDIRSYLSWFQQKPGKSPKTLIYRANRLVDGVPSRFSGSGSGQDYSLTITSLEFGDVGLYYCLQYDEFPLTFGAGTKLKIE | binds | binds | no binding (tested: not given) | no binding (tested: not given) |
| anti-KLB monoclonal antibody 28B7 (antibody, IgG1, V domains shown) VH: EVQLQQSGPELVQPGTSVKISCEASGYTFTDYYINWVKQSRGKSLEWIGDINPNNGDTTYNQKFKAKATLTVDRSSNTAYMELRSLTSEDSVVYYCARRFYSSPFDSWGQGTTLTVSS VL: DIVMTQSPSSLAVSVGEKVTLSCKSGQSLLYSRNQKNYLAWYQQKPGQSPKLLISWASTRESGVPDRFTGSGSGTDFTLTISSVKTEDLAVYHCQQYYSYPYTFGGGTRLEIK | no binding (tested: not given) | no binding (tested: not given) | no binding (tested: not given) | binds |
